Results as given in US11492343B2, “Polymorph of flibanserin and preparation method thereof and use of same” (priority 2016, dated 2022).
At least one compound was matched to its structure with a doubt left.

Experiment: Dissolution rate of crystal forms in physiological solution
Format: physicochemical

Row | SMILES | Dissolution rate compared with crystal form A
1 | O=c1[nH]c2ccccc2n1CCN1CCN(c2cccc(C(F)(F)F)c2)CC1 [Form II] | greater
2 | O=c1[nH]c2ccccc2n1CCN1CCN(c2cccc(C(F)(F)F)c2)CC1 [Form I] | greater
3 | O=c1[nH]c2ccccc2n1CCN1CCN(c2cccc(C(F)(F)F)c2)CC1 [Form V] | greater
